Results from one PubChem assay

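A panel of P. falciparum strains inside erythrocytes is exposed to compounds for three days, then a DNA-binding dye reports the amount of parasite DNA. Each compound was titrated across a series from about 0.000037 to 29 µM. The number is the fitted AC50, the concentration giving a half-maximal change in signal; a lower value means higher potency, whether the curve shows a decrease or an increase. Calls follow the curve class and fit quality: every row here is inconclusive, covering signal-raising curves and weak, poorly fitted, partial or highest-dose-only inhibition curves.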

Values are in nM. Every entry below has the call inconclusive. Only part of the assay is shown, chiefly results filed as inconclusive. A potency from a partial, single-point or poor curve is only a rough figure. Some entries filed as inconclusive have a full curve. The first word of each remark tells which way the curve ran; it can be opposite to the aim of the assay.

compound | tested on / at | potency (nM) | curve
Cc1ccc2c(Br)cc(Br)c(O)c2n1 | CP266 | 19011 | inhibitor, single point
Cc1ccc2c(Br)cc(Br)c(O)c2n1 | CP252 | 10000 | inhibitor, single point
Cc1ccc2c(Br)cc(Br)c(O)c2n1 | CP256 | 17782 | inhibitor, single point
Cc1ccc2c(Br)cc(Br)c(O)c2n1 | CP286 | 10000 | inhibitor, single point
Cc1ccc2c(Br)cc(Br)c(O)c2n1 | CP265 | 17782 | inhibitor, single point
Cc1ccc2c(Br)cc(Br)c(O)c2n1 | CP250 | 11220 | inhibitor, single point
Cc1ccc2c(Br)cc(Br)c(O)c2n1 | CP305 | 15101 | inhibitor, single point
Cc1ccc2c(Br)cc(Br)c(O)c2n1 | CP269 | 19011 | inhibitor, single point
Cc1ccc2c(Br)cc(Br)c(O)c2n1 | PAD | 17782 | inhibitor, single point
Cc1ccc2c(Br)cc(Br)c(O)c2n1 | CP237 | 14125 | inhibitor, single point
Cc1ccc2c(Br)cc(Br)c(O)c2n1 | DIV17 | 19011 | inhibitor, single point
Cc1ccc2c(Br)cc(Br)c(O)c2n1 | W2 | 11995 | inhibitor, partial curve, poor fit
Cc1ccc2c(Br)cc(Br)c(O)c2n1 | P93_24 | 15848 | inhibitor, single point
Cc1ccc2c(Br)cc(Br)c(O)c2n1 | FAB9 | 14125 | inhibitor, single point
Cc1ccc2c(Br)cc(Br)c(O)c2n1 | PC49 | 14125 | inhibitor, single point
Cc1ccc2c(Br)cc(Br)c(O)c2n1 | PC26 | 16944 | inhibitor, single point
Cc1ccc2c(Br)cc(Br)c(O)c2n1 | P94_40 | 17782 | inhibitor, single point
Cc1ccc2c(Br)cc(Br)c(O)c2n1 | CP203 | 8492 | inhibitor, partial curve
Cc1ccc2c(Br)cc(Br)c(O)c2n1 | C2A | 15848 | inhibitor, single point
Cc1ccc2c(Br)cc(Br)c(O)c2n1 | CP191 | 11220 | inhibitor, single point
Cc1ccc2c(Br)cc(Br)c(O)c2n1 | DIV14 | 11995 | inhibitor, single point
Cc1ccc2c(Br)cc(Br)c(O)c2n1 | AA1029 | 11220 | inhibitor, single point
Cc1ccc2c(Br)cc(Br)c(O)c2n1 | HB3 | 12589 | inhibitor, single point
COc1ccc2[nH]cc(CCNC(C)=O)c2c1 | CP315 | 2686 | inhibitor, single point
COc1ccc2[nH]cc(CCNC(C)=O)c2c1 | CP215 | 16944 | inhibitor, single point
CC(C)c1cc2c(cc1S(=O)(=O)O)[C@@]1(C)CCC[C@@](C)(C(=O)O)[C@@H]1CC2 | CP269 | 4256 | inhibitor, partial curve, poor fit
CC(C)c1cc2c(cc1S(=O)(=O)O)[C@@]1(C)CCC[C@@](C)(C(=O)O)[C@@H]1CC2 | CP247 | 1000 | inhibitor, single point
Nc1ccc(N=Nc2ccccc2)c(N)n1 | ECU | 11220 | inhibitor, single point
Nc1ccc(N=Nc2ccccc2)c(N)n1 | CP335 | 16944 | inhibitor, partial curve, poor fit
Nc1ccc(N=Nc2ccccc2)c(N)n1 | CP191 | 11220 | inhibitor, single point
Nc1ccc(N=Nc2ccccc2)c(N)n1 | CP215 | 30.1 | inhibitor, partial curve, poor fit
Nc1ccc(N=Nc2ccccc2)c(N)n1 | N140 | 1778 | inhibitor, partial curve
Nc1ccc(N=Nc2ccccc2)c(N)n1 | TAB109 | 3981 | inhibitor, single point
Nc1ccc(N=Nc2ccccc2)c(N)n1 | C2A | 17782 | inhibitor, single point
Nc1ccc(N=Nc2ccccc2)c(N)n1 | FAB9 | 17782 | inhibitor, single point
CC(N)C12CC3CC(CC(C3)C1)C2 (stereo not given) | TAB165 | 11220 | inhibitor, partial curve
CC(N)C12CC3CC(CC(C3)C1)C2 (stereo not given) | CP247 | 17782 | inhibitor, single point
CC(N)C12CC3CC(CC(C3)C1)C2 (stereo not given) | CP329 | 6012 | inhibitor, partial curve, poor fit
CC(N)C12CC3CC(CC(C3)C1)C2 (stereo not given) | DIV17 | 13459 | inhibitor, single point
CC(N)C12CC3CC(CC(C3)C1)C2 (stereo not given) | SC27B | 7943 | inhibitor, partial curve, poor fit
CC(N)C12CC3CC(CC(C3)C1)C2 (stereo not given) | CP238 | 8912 | inhibitor, single point
CC(N)C12CC3CC(CC(C3)C1)C2 (stereo not given) | DIV14 | 11995 | inhibitor, partial curve
CC(N)C12CC3CC(CC(C3)C1)C2 (stereo not given) | CP260 | 11220 | inhibitor, single point
CC(N)C12CC3CC(CC(C3)C1)C2 (stereo not given) | CP192 | 6746 | inhibitor, partial curve
C/C(=C\c1csc(C)n1)[C@@H]1C[C@@H]2O[C@]2(C)CCC[C@H](C)[C@H](O)[C@@H](C)C(=O)C(C)(C)[C@@H](O)CC(=O)O1 | PC15 | 3.5 | inhibitor, full curve
C/C(=C\c1csc(C)n1)[C@@H]1C[C@@H]2O[C@]2(C)CCC[C@H](C)[C@H](O)[C@@H](C)C(=O)C(C)(C)[C@@H](O)CC(=O)O1 | CP268 | 4.3 | inhibitor, full curve
C/C(=C\c1csc(C)n1)[C@@H]1C[C@@H]2O[C@]2(C)CCC[C@H](C)[C@H](O)[C@@H](C)C(=O)C(C)(C)[C@@H](O)CC(=O)O1 | CP305 | 3.8 | inhibitor, full curve
C/C(=C\c1csc(C)n1)[C@@H]1C[C@@H]2O[C@]2(C)CCC[C@H](C)[C@H](O)[C@@H](C)C(=O)C(C)(C)[C@@H](O)CC(=O)O1 | PC49 | 199.5 | inhibitor, full curve
C/C(=C\c1csc(C)n1)[C@@H]1C[C@@H]2O[C@]2(C)CCC[C@H](C)[C@H](O)[C@@H](C)C(=O)C(C)(C)[C@@H](O)CC(=O)O1 | CP201 | 4.8 | inhibitor, full curve
CNC(=O)Oc1cccc2ccccc12 | CP297 | 3.8 | activator, full curve, poor fit
CNC(=O)Oc1cccc2ccccc12 | DIV14 | 21331 | inhibitor, partial curve, poor fit
CNC(=O)Oc1cccc2ccccc12 | PC26 | 6012 | inhibitor, partial curve, poor fit
CNC(=O)Oc1cccc2ccccc12 | P93_24 | 12589 | inhibitor, partial curve, poor fit
CNC(=O)Oc1cccc2ccccc12 | ICS | 12589 | inhibitor, single point

For reference, 5 entries once more:

For C/C(=C\c1csc(C)n1)[C@@H]1C[C@@H]2O[C@]2(C)CCC[C@H](C)[C@H](O)[C@@H](C)C(=O)C(C)(C)[C@@H](O)CC(=O)O1 [CP305] the result was potency 3.8 nM (inhibitor, full curve).
For CNC(=O)Oc1cccc2ccccc12 [DIV14] the result was potency 21331 nM (inhibitor, partial curve, poor fit).
For Cc1ccc2c(Br)cc(Br)c(O)c2n1 [FAB9] the result was potency 14125 nM (inhibitor, single point).
For Cc1ccc2c(Br)cc(Br)c(O)c2n1 [CP252] the result was potency 10000 nM (inhibitor, single point).
For Nc1ccc(N=Nc2ccccc2)c(N)n1 [ECU] the result was potency 11220 nM (inhibitor, single point).

Data taken from PubChem BioAssay AID504749, deposited by NCATS (2011).